ClpP1P2: 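Protease assay of ClpP1P2, read by the AMC dye that it sets free. Target: ClpP1P2, Mycobacterium tuberculosis (UniProt P9WPC5 and UniProt P9WPC3). Concentration: 50 µM. Higher reads as stronger inhibition, judged from the few compounds that gave an IC50. Most other retested compounds had strongly negative values. About 69,000 compounds were tested under these conditions; 0.015% (about 10) showed 50% or more at least once.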
Toxoplasma: 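Assay of Toxoplasma gondii numbers, read through their beta-galactosidase reporter with a colour substrate. Tested at 10 µM. The record gives no direction; the compounds picked for IC50 retests had high values, so higher reads as fewer parasites. Of about 67,000 compounds tested this way, about 260 (0.38%) reached 50% or more in at least one test.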
Leishmania in macrophages: 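Cell assay of Leishmania donovani living inside macrophages; the read-out is not stated. Concentration: 30 µM. Direction is inferred from retests: higher values go with stronger inhibition. Of about 69,000 compounds tested this way, about 1,000 (1.5%) reached 50% or more in at least one test.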
TcHisRS: 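Histidine-tRNA ligase, Trypanosoma cruzi CL Brener (UniProt Q4DA54). Enzyme assay of histidyl-tRNA synthetase; the read-out is not stated. Tested at 30 µM. Direction is inferred from retests: higher values go with stronger inhibition. Size under these conditions: about 69,000 compounds, about 31 of them at 50% or above in at least one test.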
CoaBC: 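Coenzyme A biosynthesis protein CoaBC, Mycobacterium tuberculosis (UniProt P9WNZ1). Enzyme assay of CoaBC with a phosphate dye (Biomol Green) read at 650 nm. Concentration: 30 µM. Higher reads as stronger inhibition, judged from the few compounds that gave an IC50. Most strong results did not repeat in a second test. Size under these conditions: about 67,000 compounds, about 40 of them at 50% or above in at least one test.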

Protein sequences, listed by entry. Tags and fused reporters are not part of them. Residues count along the entry.
UniProt P9WPC5, whole entry: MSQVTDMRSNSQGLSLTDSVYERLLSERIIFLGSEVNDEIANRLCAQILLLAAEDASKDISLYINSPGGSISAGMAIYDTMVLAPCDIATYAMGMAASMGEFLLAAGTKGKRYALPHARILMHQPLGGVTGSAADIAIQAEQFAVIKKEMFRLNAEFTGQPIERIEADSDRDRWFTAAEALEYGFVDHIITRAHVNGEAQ
UniProt P9WPC3, whole entry partner: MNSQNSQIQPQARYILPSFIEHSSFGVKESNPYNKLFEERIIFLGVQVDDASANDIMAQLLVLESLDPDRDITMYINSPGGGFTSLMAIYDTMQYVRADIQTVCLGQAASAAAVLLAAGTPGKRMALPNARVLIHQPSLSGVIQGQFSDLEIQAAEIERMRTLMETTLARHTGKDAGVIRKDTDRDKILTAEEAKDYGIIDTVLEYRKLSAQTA
UniProt Q4DA54, 1-478: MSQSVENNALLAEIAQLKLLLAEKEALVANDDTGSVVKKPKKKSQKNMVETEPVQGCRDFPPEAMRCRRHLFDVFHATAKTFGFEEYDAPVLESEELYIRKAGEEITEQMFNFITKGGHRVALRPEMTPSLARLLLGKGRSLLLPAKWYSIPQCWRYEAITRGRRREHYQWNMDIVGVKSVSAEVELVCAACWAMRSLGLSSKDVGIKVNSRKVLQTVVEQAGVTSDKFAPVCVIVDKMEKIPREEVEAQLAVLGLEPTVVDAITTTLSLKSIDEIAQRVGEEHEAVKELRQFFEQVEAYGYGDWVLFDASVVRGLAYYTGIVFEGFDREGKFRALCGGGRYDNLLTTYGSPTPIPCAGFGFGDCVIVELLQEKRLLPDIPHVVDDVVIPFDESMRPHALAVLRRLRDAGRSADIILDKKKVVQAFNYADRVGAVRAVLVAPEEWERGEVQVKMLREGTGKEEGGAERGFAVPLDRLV
UniProt P9WNZ1, whole entry: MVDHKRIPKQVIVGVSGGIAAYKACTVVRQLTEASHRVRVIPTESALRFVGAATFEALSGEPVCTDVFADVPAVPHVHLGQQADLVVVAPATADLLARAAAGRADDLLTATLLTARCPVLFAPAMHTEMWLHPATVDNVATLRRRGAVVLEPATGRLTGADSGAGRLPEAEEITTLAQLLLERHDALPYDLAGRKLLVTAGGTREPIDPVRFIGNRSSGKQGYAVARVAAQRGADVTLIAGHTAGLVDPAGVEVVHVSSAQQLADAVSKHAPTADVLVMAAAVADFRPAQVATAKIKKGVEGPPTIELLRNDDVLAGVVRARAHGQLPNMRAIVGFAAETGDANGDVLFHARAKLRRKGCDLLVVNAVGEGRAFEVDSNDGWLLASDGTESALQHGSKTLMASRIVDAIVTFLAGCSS

Values are the deposited “Percent Effect”, in %. The record does not define 0% and 100%; most values in the screen are far below 50% and negative numbers occur (in some assays of this library far below -100). This is an unselected part of the compounds tested. A dash means the value is not listed here; it may have been measured.

SMILES | ClpP1P2 | Toxoplasma | Leishmania in macrophages | TcHisRS | CoaBC
CCCN1CCCn2c(nc(CNC(=O)c3cnoc3C)cc2=O)C1 | 0.7038% | - | - | 7.2% | -1.062%
Cc1cccc(C(=O)NC2CCN(c3cnn(C)c3)C2=O)n1 (configuration not stated) | -7.495% | 1.435% | 11.24% | -3.39% | 8.37%
O=C(Nc1cccc(-c2cscn2)c1)N1CCC2(CC1)CC(O)CO2 (configuration not stated) | 4.407% | 2.38% | -31.01% | -3.896% | 3.415%
COC(=O)C1CCN(CC2(c3ccc(C)cn3)CCNCC2)CC1 | -5.269% | -6.222% | -0.7614% | 6.122% | -2.381%
Cc1ccc2cccc(C(=O)NCCOCC3CC3)c2n1 | 4.612% | 3.687% | 24.35% | 10.13% | -0.9615%
CC(C)Nc1ccc(-c2ccnc3c2ccn3C)nn1 | -8.299% | 4.643% | 3.083% | 0.5587% | 5.242%
CCCOCC(=O)NS(=O)(=O)c1ccc2c(c1)OCCCO2 | 1.086% | -4.331% | -1.683% | 3.03% | 2.504%
CN(CC(F)(F)F)C(=O)CNC(=O)Cc1ccccc1O | -0.6229% | -12.79% | 2.124% | 2.105% | 6.375%
CCOCC(O)CN1CCN(C(=O)c2cccc(OC)c2)CC1 (configuration not stated) | -8.745% | 7.714% | 1.771% | 4% | 4.301%
CCc1nccn1C1CCCN(C(=O)c2cnn(C)c2C2CC2)C1 (configuration not stated) | -3.179% | -38.66% | 15.34% | 4.511% | 4.152%
CCS(=O)(=O)c1ccc2c(c1)OCCCO2 | -2.977% | 17.65% | 23.84% | 4.972% | 3.204%
Cc1ccccc1OCC1CCCN(C(=O)CN(C)C2CCNCC2)C1 (configuration not stated) | 2.018% | 1.665% | 83.48% | 5.419% | -26.45%
Cc1noc(C)c1CN1C[C@@H]2C[C@@H](C)O[C@@H]2C1 | -2.556% | - | - | 13.33% | 2.927%
c1ccc2[nH]c(C3CCN(Cc4nnc(C5CC5)o4)CC3)cc2c1 | 1.348% | -16.58% | 12.74% | 14.74% | -33.86%
COCCCN1CC2(CCCN(c3ncnc4[nH]ccc34)C2)CCC1=O (configuration not stated) | -11.22% | -2.912% | 3.699% | 7.143% | 4.902%
Cc1cc(C(=O)N2CCn3cc(CN4CCOCC4)nc3C2)no1.O=C(O)C(F)(F)F | - | -53.03% | 21.25% | - | -
COCCNC(=O)Nc1cccc2c1CCN(S(C)(=O)=O)C2 | 6.836% | 8.605% | -0.05914% | 8.333% | 6.198%
Cn1nc2c(cc1=O)CN(CCc1nc3ccccc3c(=O)[nH]1)CC2 | -6.557% | 1.204% | 27.24% | 7.438% | -5.33%
c1ccc(OC[C@@H]2CCC[C@@]23CNCCO3)nc1 | 7.519% | - | - | 1.657% | 3.342%
Cc1ccoc1C(=O)N1CCC(n2cc(CO)nn2)CC1 | -2.473% | 6.626% | 23.73% | 3.867% | -2.288%
COCCNC(=O)c1cc2c(nc1O)CC(c1cccs1)CC2=O (configuration not stated) | -0.7345% | 0.6378% | 9.111% | 7.955% | 1.927%
[H][C@@]12CCN(C)[C@@]1([H])CCN2S(=O)(=O)Cc1ccc(C)cc1 | - | -6.711% | 25.11% | - | -
Cc1ccc2c(n1)N(CCN(C)C)CCN(C(=O)c1cscn1)C2.O=C(O)C(F)(F)F.O=C(O)C(F)(F)F | - | -8.652% | 4.389% | - | -
COc1cccc(CN2CCC(O)(c3ccc(C)cn3)CC2)c1OC | 7.336% | -7.334% | 10.87% | -2.174% | -4.206%
CCOCc1nn(C)c2c1CN(Cc1cccs1)CC2.O=C(O)C(F)(F)F | - | -16.6% | 45.68% | - | -
O=C(NCCOc1ccc(Cl)cn1)Nc1cccnc1 | -4.557% | -52.56% | 22.32% | 0% | 5.123%
CCOCC(=O)N1CCC2(CC1)COCCN2CCN(C)C | -11.5% | - | - | 4.762% | -5.549%
CCc1ccc(CN2CCCn3c(nc(Cn4ccnc4)cc3=O)C2)o1.O=C(O)C(F)(F)F.O=C(O)C(F)(F)F | - | 1.534% | -18.13% | - | -
c1coc(CN2C[C@@H]3OCCN(CCN4CCCC4)[C@@H]3C2)c1 | 0.07199% | - | - | 4.902% | -12.85%
CSc1nccc(N2CCC3(CCCN(CCc4ccccc4)C3)C2)n1 (configuration not stated) | -10.85% | 0.4337% | 10.87% | 16.96% | 14.97%
Cc1cc(=O)c2ccccc2n1CC1CCN(C(C)C)C1 (configuration not stated) | -6.779% | -13.09% | 6.946% | 9.74% | 3.507%
[H][C@@]12C[C@H](C(=O)Nc3cccnc3)[C@@]([H])(CN(S(=O)(=O)N(C)C)C1)O2 | - | 3.212% | -7.824% | - | -
O=C(CN(Cc1ccco1)C1CC1)N1CCCCCC1 | -44.27% | -1.685% | -15.12% | 8.455% | 5.744%
Cc1ccccc1S(=O)(=O)N[C@@H]1CC[C@@H](N2CCNC(=O)C2)[C@@H]1O | 0.4241% | -14.67% | 0.4105% | 3.39% | 9.201%
Cc1noc(C2CCCN(CC(=O)N3CCNC(=O)C3)C2)n1 (configuration not stated) | 0.9218% | - | 13.17% | 2.299% | -17.59%
COCc1ccc(C(=O)N2CCC(c3cc4nccnc4[nH]3)CC2)cc1 | -24.55% | 4.941% | 8.969% | -1.521% | 2.596%
Cc1cccc(C(=O)N2CCCC2c2c(C)n[nH]c2C)c1 (configuration not stated) | -1.783% | -7.399% | -15.35% | 5.946% | 4.701%
CCc1ccc(CCC(=O)N2CCOCC2c2ncon2)cc1 (configuration not stated) | -3.486% | -1.185% | -0.8608% | 1.149% | -1.012%

The last 5 entries again:

{"smiles": "Cc1ccccc1S(=O)(=O)N[C@@H]1CC[C@@H](N2CCNC(=O)C2)[C@@H]1O", "ClpP1P2": 0.4241, "Toxoplasma": -14.67, "Leishmania in macrophages": 0.4105, "TcHisRS": 3.39, "CoaBC": 9.201}
{"smiles": "Cc1noc(C2CCCN(CC(=O)N3CCNC(=O)C3)C2)n1", "stereo": "configuration not stated", "ClpP1P2": 0.9218, "Leishmania in macrophages": 13.17, "TcHisRS": 2.299, "CoaBC": -17.59}
{"smiles": "COCc1ccc(C(=O)N2CCC(c3cc4nccnc4[nH]3)CC2)cc1", "ClpP1P2": -24.55, "Toxoplasma": 4.941, "Leishmania in macrophages": 8.969, "TcHisRS": -1.521, "CoaBC": 2.596}
{"smiles": "Cc1cccc(C(=O)N2CCCC2c2c(C)n[nH]c2C)c1", "stereo": "configuration not stated", "ClpP1P2": -1.783, "Toxoplasma": -7.399, "Leishmania in macrophages": -15.35, "TcHisRS": 5.946, "CoaBC": 4.701}
{"smiles": "CCc1ccc(CCC(=O)N2CCOCC2c2ncon2)cc1", "stereo": "configuration not stated", "ClpP1P2": -3.486, "Toxoplasma": -1.185, "Leishmania in macrophages": -0.8608, "TcHisRS": 1.149, "CoaBC": -1.012}

The values are deposited in ChEMBL (CHEMBL3988442, “University of Dundee, Small-Polar-MMV Screening Library” (2021)).